Sequences of proteins named here, by UniProt entry; tags and fusion partners are left off. A change or cut given only in a name is not applied to a line headed by its entry. Residues count along the entry.
UniProt P36894, residues 24-532: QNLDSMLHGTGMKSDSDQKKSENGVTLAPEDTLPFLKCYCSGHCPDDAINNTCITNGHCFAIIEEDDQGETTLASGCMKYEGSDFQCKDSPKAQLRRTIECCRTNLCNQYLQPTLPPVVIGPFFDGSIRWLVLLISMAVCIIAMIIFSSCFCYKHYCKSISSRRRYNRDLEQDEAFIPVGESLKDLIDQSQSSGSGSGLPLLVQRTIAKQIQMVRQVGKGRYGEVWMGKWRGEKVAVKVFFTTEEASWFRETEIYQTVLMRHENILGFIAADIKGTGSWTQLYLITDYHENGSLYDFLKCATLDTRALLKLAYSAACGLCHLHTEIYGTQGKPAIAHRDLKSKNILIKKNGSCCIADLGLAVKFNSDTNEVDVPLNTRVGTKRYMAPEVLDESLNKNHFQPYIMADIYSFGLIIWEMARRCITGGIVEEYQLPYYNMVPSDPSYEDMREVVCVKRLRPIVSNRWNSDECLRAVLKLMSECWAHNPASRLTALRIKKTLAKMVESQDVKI
UniProt Q2MKA7: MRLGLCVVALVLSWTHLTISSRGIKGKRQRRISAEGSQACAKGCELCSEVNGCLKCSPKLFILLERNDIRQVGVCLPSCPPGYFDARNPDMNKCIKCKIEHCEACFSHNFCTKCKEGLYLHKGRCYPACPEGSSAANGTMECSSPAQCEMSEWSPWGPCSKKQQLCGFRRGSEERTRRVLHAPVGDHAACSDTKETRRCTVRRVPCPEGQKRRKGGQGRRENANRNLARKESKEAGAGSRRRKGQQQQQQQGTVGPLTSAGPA
UniProt Q6UXX9: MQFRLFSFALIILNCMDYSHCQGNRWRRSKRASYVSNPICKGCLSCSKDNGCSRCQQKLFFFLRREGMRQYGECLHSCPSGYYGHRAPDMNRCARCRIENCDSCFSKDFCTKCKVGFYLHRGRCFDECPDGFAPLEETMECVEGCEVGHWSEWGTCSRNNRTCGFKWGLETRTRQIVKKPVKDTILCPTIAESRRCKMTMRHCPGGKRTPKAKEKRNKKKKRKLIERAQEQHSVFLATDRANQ
UniProt Q9BXY4: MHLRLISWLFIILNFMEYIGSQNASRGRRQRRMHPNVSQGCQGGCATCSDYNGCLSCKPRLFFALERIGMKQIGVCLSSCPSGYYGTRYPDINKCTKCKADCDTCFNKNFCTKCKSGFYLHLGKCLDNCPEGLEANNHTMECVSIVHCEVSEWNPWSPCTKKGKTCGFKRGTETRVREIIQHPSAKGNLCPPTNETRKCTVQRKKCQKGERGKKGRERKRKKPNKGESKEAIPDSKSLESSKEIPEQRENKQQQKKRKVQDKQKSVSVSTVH
UniProt Q8BJ73: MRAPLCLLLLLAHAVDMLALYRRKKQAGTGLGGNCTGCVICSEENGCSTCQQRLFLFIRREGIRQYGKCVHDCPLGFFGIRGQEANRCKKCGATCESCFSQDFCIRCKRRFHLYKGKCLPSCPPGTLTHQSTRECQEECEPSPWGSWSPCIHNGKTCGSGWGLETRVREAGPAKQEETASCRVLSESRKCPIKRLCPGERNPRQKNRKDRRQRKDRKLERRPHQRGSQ

According to paper PMC7642414, “R-spondins are BMP receptor antagonists in Xenopus early embryonic development” (Nature Communications, 2020):

target: human BMPR1A-HA on HEK293T cells (human) (UniProt P36894); assay: cell surface binding assay (AP fusion, chromogenic stain); HEK293T cells transfected with receptor DNA, incubated with 1.5 U ml^-1 AP-fusion conditioned media for 3 h on ice, washed, DSP crosslinking, Levamisole, developed with BM-Purple

Substance | binding
human RSPO1^∆C-AP (from UniProt Q2MKA7) (ligand) | no binding (tested: 1.5 U ml^-1 conditioned media)
human RSPO2^∆C-AP (from UniProt Q6UXX9) (ligand) | binds
human RSPO3^∆C-AP (from UniProt Q9BXY4) (ligand) | binds
murine RSPO4^∆C-AP (from UniProt Q8BJ73) (ligand) | no binding (tested: 1.5 U ml^-1 conditioned media)

Results are given in words; binding and its absence hold for the method and conditions named. A result given as binding can be weak or reduced; the word gives no strength.
